Primary screen of a compound library

Protein sequences, listed by entry. Tags and fused reporters are not part of them.
UniProt E9BF75, entry or part of it: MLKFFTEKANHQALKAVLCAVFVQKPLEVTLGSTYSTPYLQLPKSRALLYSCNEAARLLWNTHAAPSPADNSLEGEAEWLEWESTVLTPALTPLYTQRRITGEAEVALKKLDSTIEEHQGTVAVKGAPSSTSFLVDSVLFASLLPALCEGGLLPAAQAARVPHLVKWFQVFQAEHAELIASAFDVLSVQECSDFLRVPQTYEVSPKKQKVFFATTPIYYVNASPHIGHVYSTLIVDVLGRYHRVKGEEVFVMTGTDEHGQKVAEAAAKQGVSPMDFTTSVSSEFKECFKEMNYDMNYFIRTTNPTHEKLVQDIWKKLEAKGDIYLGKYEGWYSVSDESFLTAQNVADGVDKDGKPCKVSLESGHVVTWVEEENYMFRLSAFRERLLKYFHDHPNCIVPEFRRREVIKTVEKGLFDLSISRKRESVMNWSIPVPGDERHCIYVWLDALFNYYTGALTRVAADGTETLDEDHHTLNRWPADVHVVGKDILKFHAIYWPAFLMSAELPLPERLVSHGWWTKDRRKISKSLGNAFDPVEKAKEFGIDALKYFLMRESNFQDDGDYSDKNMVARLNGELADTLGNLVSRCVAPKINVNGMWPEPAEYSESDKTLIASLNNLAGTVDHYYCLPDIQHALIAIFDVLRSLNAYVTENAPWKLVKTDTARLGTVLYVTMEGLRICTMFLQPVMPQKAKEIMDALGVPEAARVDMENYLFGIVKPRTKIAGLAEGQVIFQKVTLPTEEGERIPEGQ

From ChEMBL document CHEMBL3988442, “University of Dundee, Small-Polar-MMV Screening Library” (2021).

Mtb heat-shock: 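Assay on Mycobacterium tuberculosis, filed only as a heat shock assay from Cornell; the read-out is not stated. The concentration is filed as 10 mM, unlikely as a test dose, so the dose is not known. Higher reads as stronger inhibition (inferred: compounds with an IC50 in retests scored well above the rest). About 69,000 compounds were tested under these conditions; 1.4% (about 930) showed 50% or more at least once.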
Mtb growth Cornell: 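Whole-cell assay for inhibitors of Mycobacterium tuberculosis growth, labelled Cornell in the record; the read-out is not stated. The concentration is filed as 10 mM, unlikely as a test dose, so the dose is not known. Higher means stronger inhibition (inferred from two other growth screens of the library). Of about 53,000 compounds tested this way, about 900 (1.7%) reached 50% or more in at least one test.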
LdMetRS: 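Methionyl-tRNA synthetase (putative), Leishmania donovani (UniProt E9BF75). Primary screen of methionyl-tRNA synthetase; the read-out is not stated. The test concentration is not given. Values are per cent inhibition. Of about 68,000 compounds tested this way, about 24 (0.035%) reached 50% or more in at least one test.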

All values are in %.
The controls that fix the scale are not given in the record; negative values are as filed.
Compounds were drawn at random from those tested, without regard to their results.

Compound: COC(=O)CN1N=C(C(=O)N2CCCC2)S(=O)(=O)c2ccccc21
Mtb heat-shock: 19.05
Mtb growth Cornell: -7.35
LdMetRS: 8.633

Compound: CN1CCC(N(Cc2ccccc2)C(=O)c2ccn3cncc3c2)CC1
Mtb heat-shock: -22.77
Mtb growth Cornell: 11.92
LdMetRS: 9.409

Compound: FC(F)(F)c1cc(C2CCCN(c3cnccn3)C2)n2ccnc2n1 (centres undefined)
Mtb heat-shock: -5.872
Mtb growth Cornell: 5.193
LdMetRS: 12.26

Compound: [H][C@@]12CS(=O)(=O)C[C@]1([H])NCCN2c1ccnc(N(C)CCCN(C)C)n1
Mtb heat-shock: -26.68
Mtb growth Cornell: 3.342

Compound: Cc1cnc(N2CC(C(=O)N3CCOCC3)C3(CCOCC3)C2)nc1 (centres undefined)
Mtb heat-shock: -3.385
Mtb growth Cornell: 11.83
LdMetRS: 3.136

Compound: Cc1cc(CNC(=O)NCCCC(=O)N2CCc3ccccc32)no1
Mtb heat-shock: 6.608
Mtb growth Cornell: -6.969
LdMetRS: 10.89

Compound: O=C(O)C(F)(F)F.[H][C@@]12CN(Cc3ccoc3)C[C@]1([H])C(=O)N(c1cnn(C)c1)C2
Mtb heat-shock: 3.92
Mtb growth Cornell: 1.169

Compound: Cc1ccc(CN2CC[C@H]3CO[C@H](CN(C)Cc4ccco4)[C@H]3C2)s1
LdMetRS: -4.301

Compound: CCC(=O)N1CCc2[nH]cnc2C12CCN(C(=O)c1snnc1C)CC2
Mtb heat-shock: -5.563
Mtb growth Cornell: 14.15
LdMetRS: 13.66

Compound: O=c1cc(-c2cc(O)cc(CCC3CCCCN3)c2)cc[nH]1 (centres undefined)
Mtb heat-shock: -12.79
LdMetRS: 9.067

Compound: CSc1nsc(NC(=O)N(C)Cc2ccc3c(c2)OCO3)n1
Mtb heat-shock: -2.145
Mtb growth Cornell: 6.389
LdMetRS: 13.13

Compound: CNC(=O)C1CCCN1c1nc(C)c2ccccc2n1 (centres undefined)
Mtb heat-shock: 2.464
Mtb growth Cornell: 35.52
LdMetRS: 9.61

Compound: Fc1ccc(Oc2ccc(CNCC3CNc4ccnn4C3)cn2)cc1 (centres undefined)
Mtb heat-shock: -8.206
Mtb growth Cornell: -39.69
LdMetRS: 26.5

Compound: Cc1cc(N(C)C)nc(C2CCCN2)n1.Cl.Cl (centres undefined)
Mtb heat-shock: -13.2
Mtb growth Cornell: 6.803

Compound: Cc1cnn(CC2CCCN2c2ncnc3ccsc23)c1 (centres undefined)
Mtb heat-shock: -0.8598
LdMetRS: 12.38

Compound: CNC(=O)CN1CC[C@H]2CN(C(=O)c3ccc(C)cc3)C[C@H]2C1
LdMetRS: 8.122

Compound: O=C(COc1ccccc1)NCCNC(=O)c1scnc1Cl
Mtb heat-shock: -21.01
Mtb growth Cornell: -15.14
LdMetRS: 23.41

Compound: Cn1ccnc1CN(CCO)Cc1ccc(C(F)(F)F)cc1
Mtb heat-shock: -36.63
Mtb growth Cornell: 16.01
LdMetRS: 19.03

Compound: O=C(c1ccccc1F)N1CC[C@@H]2CN(c3ncccn3)CCO[C@@H]2C1
LdMetRS: 9.453

Compound: Cc1nn(C(C)C)c(C)c1CN1CCC(c2cc(C(C)C)n[nH]2)CC1
Mtb heat-shock: 9.747
Mtb growth Cornell: 9.598
LdMetRS: 10.94

Compound: COc1ccccc1C(O)CNc1c(C#N)c(=O)n(C)c(=O)n1C (centres undefined)
Mtb heat-shock: -0.3233
LdMetRS: 13.8

Compound: Cc1cn(CC(=O)Nc2cc(C(C)C)nn2C)cn1
Mtb heat-shock: 24.37
Mtb growth Cornell: -46.67
LdMetRS: 5.115

Compound: COc1cccc(S(=O)(=O)N2CCCc3c(OC)nn(C)c3C2)c1
Mtb heat-shock: -14.84
Mtb growth Cornell: 17.5
LdMetRS: 11.34

Compound: CC(C)(C)c1cn(C[C@H]2CC3CCN2C[C@@H]3C(=O)NC2CC2)nn1 (some centres undefined)
Mtb heat-shock: -19.74
Mtb growth Cornell: -15.35
LdMetRS: 5.085

Compound: Cc1cccc(C)c1OC1CN(Cc2cnc(N3CCCC3)nc2)C1
Mtb heat-shock: -7.94
Mtb growth Cornell: 14.54
LdMetRS: 8.681

Compound: NC(=O)CN1CCOCC(Cc2cccc(F)c2)C1 (centres undefined)
Mtb heat-shock: -12.58
Mtb growth Cornell: -12.65
LdMetRS: 15.53

Compound: Cc1nc(C)n(CC2CCCN(CCCOc3ccc(F)cc3)C2)n1 (centres undefined)
Mtb heat-shock: -10.27
Mtb growth Cornell: 6.839
LdMetRS: 12.54

Compound: CCc1nc(C2CCCN(C(=O)c3ccccc3O)C2)no1 (centres undefined)
Mtb heat-shock: -9.227
LdMetRS: 15.64

Compound: CN(C)C(=O)CN1CCC(c2nnc(Cn3cccn3)n2C2CC2)CC1
Mtb heat-shock: 12.05
Mtb growth Cornell: 10.04
LdMetRS: 15.01

Compound: COc1ccc(C)cc1NC(=O)Nc1cnc(N2CCCC2)nc1
Mtb heat-shock: 13.05
Mtb growth Cornell: 25.32
LdMetRS: 15.21

Compound: CCN1CC(C(=O)N2CCN(CCn3cccc3)CC2)CCC1=O (centres undefined)
Mtb heat-shock: -4.234
Mtb growth Cornell: -16.39
LdMetRS: 13.75

Compound: Cc1ccccc1NC(=O)N1CC[C@@H]2CN(C)S(=O)(=O)[C@@H]2CC1
LdMetRS: 6.667

Compound: CCN1CCC(CNC(=O)C(c2ccc(F)cc2)N(C)C)(N(C)C)CC1 (centres undefined)
Mtb heat-shock: -6.406
Mtb growth Cornell: 9.425
LdMetRS: 11.03

Compound: Cc1cc(CC(C)NC(=O)COc2ccc(F)cc2F)[nH]n1 (centres undefined)
Mtb heat-shock: 9.826
Mtb growth Cornell: 21.64
LdMetRS: 13.31

Compound: CCOc1cc(CNC(=O)CNC(=O)CC2CCCCC2)ccn1
Mtb heat-shock: 10.67
Mtb growth Cornell: 8.584
LdMetRS: 10.97

Compound: OC1(CNCCc2csc(-c3ncccn3)n2)CCNC1 (centres undefined)
Mtb heat-shock: -4.13
Mtb growth Cornell: -85.33
LdMetRS: 13.43

Compound: c1cc2n(n1)CC(CNCc1ccc(OC3CCCC3)nc1)CN2 (centres undefined)
Mtb heat-shock: 19.74
Mtb growth Cornell: -62.66
LdMetRS: 30.48

Compound: CCN(CC)c1ncc(CNC2CCc3nc(C(C)C)nn3C2)s1 (centres undefined)
Mtb heat-shock: 10.56
Mtb growth Cornell: 21.86
LdMetRS: 11.11

Compound: Cc1occc1CNC(=O)C1(C)CCCN(C(=O)c2ccccc2)C1 (centres undefined)
Mtb heat-shock: 13.92
Mtb growth Cornell: 13.23
LdMetRS: 30.38